This is one part of the list. Most values lie at the level of the controls, where differences are scatter.
What follows are targets tested with Cc1nc(Nc2ncc(C(=O)Nc3c(C)cccc3Cl)s2)cc(N2CCN(CCO)CC2)n1 [dasatinib] (assay: log2 fold change of tryptic peptide abundance, ligand vs vehicle (limited proteolysis) (log2 ratio); higher = more trypsin-susceptible (destabilized)). Conditions: ligand concentration: 5 uM; sample: K562 cleared lysate.

By UniProt entry, the sequences of proteins in these tests, tags left out. Where a name states a change or a piece, a line headed by the entry shows the natural chain unless it says otherwise.
UniProt Q9H9E3: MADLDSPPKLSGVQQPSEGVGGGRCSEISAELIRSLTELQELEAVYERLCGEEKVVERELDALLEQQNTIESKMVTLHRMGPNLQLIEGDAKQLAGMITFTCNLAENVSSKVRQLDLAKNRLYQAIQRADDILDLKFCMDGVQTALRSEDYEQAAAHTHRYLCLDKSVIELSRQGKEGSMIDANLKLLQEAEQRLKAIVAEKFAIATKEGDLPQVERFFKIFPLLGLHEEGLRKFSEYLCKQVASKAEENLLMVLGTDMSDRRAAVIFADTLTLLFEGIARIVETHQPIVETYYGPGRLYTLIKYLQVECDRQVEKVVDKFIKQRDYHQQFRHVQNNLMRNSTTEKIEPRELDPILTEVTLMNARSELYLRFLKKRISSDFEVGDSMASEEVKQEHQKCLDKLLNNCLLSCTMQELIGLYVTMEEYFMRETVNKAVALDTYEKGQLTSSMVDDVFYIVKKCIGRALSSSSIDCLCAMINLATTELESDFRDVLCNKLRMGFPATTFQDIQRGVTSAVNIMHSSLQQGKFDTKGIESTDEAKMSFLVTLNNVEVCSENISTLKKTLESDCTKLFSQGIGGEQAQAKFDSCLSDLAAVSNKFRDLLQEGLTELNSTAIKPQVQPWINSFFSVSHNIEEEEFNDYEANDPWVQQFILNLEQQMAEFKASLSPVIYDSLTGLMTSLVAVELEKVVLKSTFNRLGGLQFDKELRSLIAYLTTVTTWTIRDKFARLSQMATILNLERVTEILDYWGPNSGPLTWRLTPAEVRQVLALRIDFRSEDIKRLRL
UniProt Q9H9B1: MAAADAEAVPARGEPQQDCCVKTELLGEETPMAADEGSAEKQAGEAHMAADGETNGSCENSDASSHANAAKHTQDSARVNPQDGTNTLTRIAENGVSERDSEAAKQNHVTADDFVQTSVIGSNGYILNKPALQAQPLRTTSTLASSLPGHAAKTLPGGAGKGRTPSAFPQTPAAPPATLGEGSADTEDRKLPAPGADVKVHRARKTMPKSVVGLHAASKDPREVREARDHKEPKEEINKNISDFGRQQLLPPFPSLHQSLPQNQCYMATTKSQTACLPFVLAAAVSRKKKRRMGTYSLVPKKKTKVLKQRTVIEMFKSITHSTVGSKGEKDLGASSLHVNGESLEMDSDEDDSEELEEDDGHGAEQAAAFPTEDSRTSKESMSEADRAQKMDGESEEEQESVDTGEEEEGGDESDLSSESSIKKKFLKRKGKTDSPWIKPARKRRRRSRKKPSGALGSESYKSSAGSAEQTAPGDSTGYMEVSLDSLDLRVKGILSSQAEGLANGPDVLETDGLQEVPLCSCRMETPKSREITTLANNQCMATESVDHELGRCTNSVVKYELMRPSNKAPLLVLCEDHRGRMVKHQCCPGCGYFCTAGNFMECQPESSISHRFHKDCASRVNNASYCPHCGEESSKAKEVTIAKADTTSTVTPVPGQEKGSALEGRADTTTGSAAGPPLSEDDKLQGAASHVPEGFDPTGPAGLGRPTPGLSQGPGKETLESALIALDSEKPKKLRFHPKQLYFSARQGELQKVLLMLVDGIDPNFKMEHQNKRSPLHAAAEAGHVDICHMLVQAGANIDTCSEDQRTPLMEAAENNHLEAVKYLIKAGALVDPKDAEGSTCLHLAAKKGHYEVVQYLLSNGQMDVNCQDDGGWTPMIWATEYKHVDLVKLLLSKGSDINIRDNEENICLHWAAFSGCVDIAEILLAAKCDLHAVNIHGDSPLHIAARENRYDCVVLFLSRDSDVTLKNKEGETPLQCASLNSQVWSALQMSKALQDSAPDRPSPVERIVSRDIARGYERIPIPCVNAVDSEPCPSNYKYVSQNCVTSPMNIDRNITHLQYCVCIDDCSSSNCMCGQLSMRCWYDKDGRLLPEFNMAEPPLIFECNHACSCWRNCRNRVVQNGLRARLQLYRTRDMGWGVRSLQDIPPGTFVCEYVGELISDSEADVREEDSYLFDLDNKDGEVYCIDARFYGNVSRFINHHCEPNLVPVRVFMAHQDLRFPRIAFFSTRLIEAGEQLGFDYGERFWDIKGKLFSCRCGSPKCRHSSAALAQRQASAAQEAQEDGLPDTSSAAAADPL
UniProt Q9H3P7: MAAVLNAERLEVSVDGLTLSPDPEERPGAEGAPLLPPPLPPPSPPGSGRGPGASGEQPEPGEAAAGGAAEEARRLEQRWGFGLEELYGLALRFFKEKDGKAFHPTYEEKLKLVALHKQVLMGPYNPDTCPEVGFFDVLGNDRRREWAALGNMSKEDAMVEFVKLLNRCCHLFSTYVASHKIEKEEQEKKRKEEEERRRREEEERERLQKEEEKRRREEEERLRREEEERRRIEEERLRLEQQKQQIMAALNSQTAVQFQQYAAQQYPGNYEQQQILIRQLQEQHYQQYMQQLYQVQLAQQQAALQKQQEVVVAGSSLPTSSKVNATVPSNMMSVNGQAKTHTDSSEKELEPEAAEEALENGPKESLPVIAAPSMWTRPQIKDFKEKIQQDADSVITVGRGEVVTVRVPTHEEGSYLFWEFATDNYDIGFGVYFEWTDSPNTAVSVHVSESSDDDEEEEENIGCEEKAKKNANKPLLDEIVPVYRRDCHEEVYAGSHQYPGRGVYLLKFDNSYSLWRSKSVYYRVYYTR
UniProt Q9H425: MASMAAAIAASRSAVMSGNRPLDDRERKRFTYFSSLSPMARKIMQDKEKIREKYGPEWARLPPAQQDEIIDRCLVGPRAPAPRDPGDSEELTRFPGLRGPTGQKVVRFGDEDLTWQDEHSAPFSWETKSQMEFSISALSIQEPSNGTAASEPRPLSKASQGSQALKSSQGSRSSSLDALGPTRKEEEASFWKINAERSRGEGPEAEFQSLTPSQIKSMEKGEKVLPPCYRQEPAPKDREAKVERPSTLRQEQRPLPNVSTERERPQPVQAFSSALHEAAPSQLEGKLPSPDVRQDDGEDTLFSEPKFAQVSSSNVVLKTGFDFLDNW
UniProt Q9H2M9: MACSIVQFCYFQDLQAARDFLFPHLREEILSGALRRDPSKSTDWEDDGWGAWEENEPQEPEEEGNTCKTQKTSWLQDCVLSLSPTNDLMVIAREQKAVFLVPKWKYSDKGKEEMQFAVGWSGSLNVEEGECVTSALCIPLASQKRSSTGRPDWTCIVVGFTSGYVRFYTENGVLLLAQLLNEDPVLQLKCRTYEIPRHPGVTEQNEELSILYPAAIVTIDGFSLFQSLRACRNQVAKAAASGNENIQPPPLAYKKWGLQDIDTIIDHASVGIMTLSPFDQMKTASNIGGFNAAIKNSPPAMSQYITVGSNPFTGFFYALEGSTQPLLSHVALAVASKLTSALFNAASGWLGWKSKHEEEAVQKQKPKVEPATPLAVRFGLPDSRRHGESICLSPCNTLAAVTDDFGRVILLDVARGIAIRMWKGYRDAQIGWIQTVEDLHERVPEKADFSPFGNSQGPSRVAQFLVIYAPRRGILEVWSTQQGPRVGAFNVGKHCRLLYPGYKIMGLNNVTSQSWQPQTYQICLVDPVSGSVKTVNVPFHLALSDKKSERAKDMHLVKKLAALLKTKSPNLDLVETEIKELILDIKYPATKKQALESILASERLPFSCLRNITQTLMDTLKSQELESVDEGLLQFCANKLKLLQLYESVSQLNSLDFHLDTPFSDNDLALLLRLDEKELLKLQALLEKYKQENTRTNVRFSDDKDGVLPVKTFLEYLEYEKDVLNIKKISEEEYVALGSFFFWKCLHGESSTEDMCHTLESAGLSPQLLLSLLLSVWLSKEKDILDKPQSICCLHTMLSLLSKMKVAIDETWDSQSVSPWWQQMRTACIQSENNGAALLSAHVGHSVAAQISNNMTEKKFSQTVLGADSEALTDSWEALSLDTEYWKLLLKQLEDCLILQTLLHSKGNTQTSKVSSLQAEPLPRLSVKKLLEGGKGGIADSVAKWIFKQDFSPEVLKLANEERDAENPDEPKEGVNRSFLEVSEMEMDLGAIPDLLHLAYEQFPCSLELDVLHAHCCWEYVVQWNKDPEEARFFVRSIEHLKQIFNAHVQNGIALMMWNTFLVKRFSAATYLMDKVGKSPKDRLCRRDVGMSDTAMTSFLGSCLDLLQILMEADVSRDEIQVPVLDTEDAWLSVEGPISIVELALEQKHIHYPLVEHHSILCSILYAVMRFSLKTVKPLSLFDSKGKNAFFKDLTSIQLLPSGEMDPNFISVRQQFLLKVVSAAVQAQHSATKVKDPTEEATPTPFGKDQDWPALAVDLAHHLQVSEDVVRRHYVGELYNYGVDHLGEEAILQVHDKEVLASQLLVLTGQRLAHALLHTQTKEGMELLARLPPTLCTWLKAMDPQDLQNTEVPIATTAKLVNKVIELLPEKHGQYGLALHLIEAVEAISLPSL

Target | log2 fold change
COG4 (peptide sequence: QVASKAEENLLMVLGTDMSDRR, peptide start residue: 242) (UniProt Q9H9E3) | 0.158
EHMT1 (peptide sequence: IAENGVSER, peptide start residue: 91) (UniProt Q9H9B1) | 0.21
ACBD3 (peptide sequence: EDAMVEFVK, peptide start residue: 155) (UniProt Q9H3P7) | -0.53
C1orf198 (peptide sequence: ASQGSQALK, peptide start residue: 158) (UniProt Q9H425) | 0.504
RAB3GAP2 (peptide sequence: KQALESILASERLPFSCLR, peptide start residue: 592) (UniProt Q9H2M9) | -0.168
MRPL46 (peptide sequence: FLGNAPCGHYTFKFPQAMR, peptide start residue: 204) (UniProt Q9H2W6) | -0.155

Reference: the supplement of paper PMC12819154, “High-throughput peptide-centric local stability assay extends protein–ligand identification to membrane proteins, tissues and bacteria” (Nature Structural & Molecular Biology, 2025)
